The text below walks through data of the supplement of paper PMC8551327.

Structures can show the parent of a compound that is named as a salt. This is one part of the list. Cut-off read from the data, not from the text of the source: active = 1.25 or more and inactive = the rest. Single values are uncertain, as repeats are few or missing.

This assay relates to Kcc2-LUC knock-in mouse primary cortical neurons (Kcc2 promoter reporter). In words: Kcc2 promoter-driven luciferase activity relative to vehicle control (fold of vehicle (ratio)); higher = stronger Kcc2 promoter activation (Kcc2 expression enhancer). The settings on record: 100 nM; 48 h.
Consider `O=C(CC1(O)C(=O)Nc2c(Cl)cc(Cl)cc21)c1ccc([N+](=O)[O-])cc1` (stereo not drawn), for which the “Kcc2 promoter-driven luciferase activity” value was inactive: 0.43.

On to `C=CC(=O)N1C/C(=C\c2ccc([N+](=O)[O-])cc2)C(=O)/C(=C/c2ccc([N+](=O)[O-])cc2)C1`, for which the “Kcc2 promoter-driven luciferase activity” value was inactive: 1.21.

As to `O=C1c2cc(O)c(O)cc2OC(c2ccc(O)c(O)c2)C1O` (stereo not drawn) [2-(3,4-Dihydroxyphenyl)-3,6,7-trihydroxy-chroman-4-one], the “Kcc2 promoter-driven luciferase activity” value was inactive: 0.52.

`CC1(C)CC(Nc2ccc(Nc3ccccc3)cc2)CC(C)(C)N1`: the “Kcc2 promoter-driven luciferase activity” value is active: 1.29.

As for `CNC(=S)N/N=C/c1ccc([N+](=O)[O-])s1`, the “Kcc2 promoter-driven luciferase activity” value is inactive: 1.12.

`COc1ccccc1/C=C1\Sc2scc(-c3cccc([N+](=O)[O-])c3)[n+]2C1=O`: the “Kcc2 promoter-driven luciferase activity” value was inactive: 0.92.

As to `COc1ccc2c(=O)oc3c(OC)cc(CCN(C)C)c4c(=O)oc1c2c34` [Thaspine, Acetate], the “Kcc2 promoter-driven luciferase activity” value was active: 1.29.

Turning to `CC1(C)CCC2=C(O1)c1ccccc1C(=O)C2=O` [Lapachone], the “Kcc2 promoter-driven luciferase activity” value was inactive: 1.11.

For the compound `Cc1cc(Cl)cc2c1NC(=O)C2(O)C(C(=O)c1ccccc1)c1ccccc1` (stereo not drawn), the “Kcc2 promoter-driven luciferase activity” value was inactive: 0.8.

For `O=C(Nc1ccc(Sc2ccc(N=Nc3c(O)c(S(=O)(=O)O)cc4cc(S(=O)(=O)O)ccc34)cc2)cc1)c1ccc(N=Nc2c(O)ccc3c(S(=O)(=O)O)cc(S(=O)(=O)O)cc23)cc1`, the “Kcc2 promoter-driven luciferase activity” value is inactive: 1.07.

On to `CN(C)c1ccc(/C=c2/sc3nc(=O)c(-c4ccccc4NC(=O)C(F)(F)F)nn3c2=O)cc1`, for which the “Kcc2 promoter-driven luciferase activity” value was inactive: 1.23.

As for `O=c1[nH]c(=O)n(C2CCCO2)cc1F` [Tegafur, (R)-], the “Kcc2 promoter-driven luciferase activity” value was inactive: 1.24.

As to `COC(=O)C[C@](O)(CCCC(C)(C)O)C(=O)O[C@@H]1C(OC)=C[C@]23CCCN2CCc2cc4c(cc2[C@H]13)OCO4` [Omacetaxine], the “Kcc2 promoter-driven luciferase activity” value is inactive: 1.06.

For `Cc1cc2nc3[nH]c(=O)[nH]c(=O)c3nc2cc1C` [Lumichrome], the “Kcc2 promoter-driven luciferase activity” value is inactive: 0.54.

In the case of `O=Cc1cc([N+](=O)[O-])no1` [3-Nitro-5-formylisoxazole], the “Kcc2 promoter-driven luciferase activity” value was inactive: 1.

Regarding `CCOC(=O)c1ccc(N=Cc2ccc(N(CCC#N)CCC#N)cc2)cc1`, the “Kcc2 promoter-driven luciferase activity” value was inactive: 0.91.

As for `Cc1c(N=Cc2ccc(N(CCC#N)CCC#N)cc2)c(=O)n(-c2ccccc2)n1C`, the “Kcc2 promoter-driven luciferase activity” value is inactive: 1.1.

For the compound `COc1ccc2c(c1OC)C(=O)O[C@@H]2[C@H]1c2c(cc3c(c2OC)OCO3)CCN1C` [Noscapine], the “Kcc2 promoter-driven luciferase activity” value is inactive: 1.05.

Turning to `O=[N+]([O-])c1cc(C(F)(F)F)cc([N+](=O)[O-])c1CCl` [2-(chloromethyl)-1,3-dinitro-5-(trifluoromethyl)benzene], the “Kcc2 promoter-driven luciferase activity” value is inactive: 1.03.

Turning to `Cc1ccccc1NC(=O)C(=O)C(C(=O)c1ccccc1F)C1OC(=O)c2ccccc21` (stereo not drawn), the “Kcc2 promoter-driven luciferase activity” value is active: 1.34.

`CC1(C)S[C@@H]2[C@H](NC(=O)C(C(=O)O)c3ccccc3)C(=O)N2[C@H]1C(=O)O` (stereo partly drawn) [Carbenicillin]: the “Kcc2 promoter-driven luciferase activity” value was inactive: 1.05.

As to `CCOC(=O)Nc1cc2c(c(N)n1)N=C(c1ccccc1)CN2`, the “Kcc2 promoter-driven luciferase activity” value is active: 1.72.

Take `CC(=O)OC1CC(n2cc(F)c(=O)[nH]c2=O)OC1CO` (stereo not drawn): the “Kcc2 promoter-driven luciferase activity” value is inactive: 1.02.

With `O=C(Nc1ccccc1-c1nn(C(=S)Nc2ccccc2)c(=S)n(C(=S)Nc2ccccc2)c1=O)C(F)(F)F`, the “Kcc2 promoter-driven luciferase activity” value was inactive: 0.86.

`CC(=O)Oc1ccc(C(c2ccc(OC(C)=O)cc2)c2ccccn2)cc1` [Bisacodyl]: the “Kcc2 promoter-driven luciferase activity” value is inactive: 0.34.

As to `CC(C)[C@@H](C)/C=C/[C@@H](C)[C@H]1CC[C@H]2C3=CC=C4C[C@@H](O)CC[C@]4(C)[C@H]3CC[C@]12C`, the “Kcc2 promoter-driven luciferase activity” value was inactive: 0.93.

Regarding `O=C(c1nc2ccc(Cl)cc2[nH]c1=O)C(O)c1ccc2c(c1)OCO2` (stereo not drawn), the “Kcc2 promoter-driven luciferase activity” value was inactive: 0.91.

With `CCCCC[C@@H](O)[C@H]1C(=O)O[C@H](C)[C@@H](O)/C=C/C=C/C=C/C=C/C=C(\C)[C@@H](O)C[C@H](O)C[C@H](O)C[C@H](O)C[C@H](O)C[C@H](O)C[C@@H]1O` [Filipin], the “Kcc2 promoter-driven luciferase activity” value was inactive: 0.938.

Consider `CCN(CC)CCNc1ccc(C)c2sc3ccccc3c(=O)c12` [Lucanthone], for which the “Kcc2 promoter-driven luciferase activity” value was active: 2.1.

As for `O=C1NC(C2CCC(Cl)CN2)C(=O)NC1C1CCC(Cl)CN1` (stereo not drawn), the “Kcc2 promoter-driven luciferase activity” value was inactive: 0.766.

For the compound `COc1ccc(-c2cc(-c3ccccc3)nc3c2CC(=O)Nc2ccccc2-3)cc1OC`, the “Kcc2 promoter-driven luciferase activity” value was inactive: 0.74.

On to `O=C(c1ccccc1)C(c1ccccc1)C1(O)C(=O)Nc2c(Cl)cc(Cl)cc21` (stereo not drawn), for which the “Kcc2 promoter-driven luciferase activity” value was inactive: 1.22.

For `CC[C@]1(O)C[C@H]2CN(CCc3c([nH]c4ccccc34)[C@@](C(=O)OC)(c3cc4c(cc3OC)N(C=O)[C@H]3[C@@](O)(C(=O)OC)[C@H](OC(C)=O)[C@]5(CC)C=CCN6CC[C@]43[C@@H]65)C2)C1` [Vincristine Sulfate], the “Kcc2 promoter-driven luciferase activity” value is inactive: 0.58.
